According to patent publication US10184140B2, “Materials and methods for production of bi-functional fatty acids in recombinant bacteria” (IOWA STATE UNIVERSITY RESEARCH FOUNDATION, INC., priority 2013, dated 2019):
At least one read-out could not be matched to a standard name with certainty.

Test: Kinetic parameters of aaKASIII and ecKASIII (spectrophotometric enzyme assay)
Assay type: biochemical
Conditions: substrate acetyl-CoA
Description: Therefore, aaKASIII was assayed with 3-hydroxybutyryl-CoA as a substrate, and its specific activity was determined using an in vitro spectrophotometric enzyme assay. KASIII enzyme assays were carried out spectrophotometrically using 400 μM ACP, 400 μM malonyl-CoA, 10-400 μM various acyl-CoAs, 400 μM NADPH, 1 mM DTT, 6 mg/ml FabD, 1.5 mg/ml FabG, and either 4 mg/ml of aaKASIII or 9.5 mg/ml of ecKASIII. The specific activity for this reaction catalysed by aaKASIII was 5-fold and 3-fold higher with isobutyryl-CoA and 3-hydroxybutyryl-CoA, respectively, than that obtained with acetyl-CoA.

Substance: E. coli KASIII Wild-type: E. coli 3-ketoacyl-ACP synthase III encoded by fabH, GenBank AAG55837.1, amino acid sequence SEQ ID NO:62
- Specificity Constant kcal/Km: 22.1E−05 ± 1.1E−06 μm^−1 s^−1
